These are yes or no findings as the source states them, for the method shown. Binding seen in cells or lysates may run through a third protein. Some results given as binding are weak or reduced against the parent protein; the word gives no strength. Sequences can lack the tags named with a protein. Values belong to the molecule of their own block, whether it stands above or below them.
Molecular target: STREP-tagged HDAC6 (UniProt Q9UBN7)
Test: pull-down; FLAG-tagged NF-κB proteins expressed in HEK cells in presence or absence of STREP-tagged HDAC6; HDAC6 pulled down on Strep-Tactin beads; western blot

Chains of the proteins cited; added tags and fusions are not shown. Lines headed by an entry give the natural chain unless they say otherwise; changes in a name come on top.
UniProt Q9UBN7: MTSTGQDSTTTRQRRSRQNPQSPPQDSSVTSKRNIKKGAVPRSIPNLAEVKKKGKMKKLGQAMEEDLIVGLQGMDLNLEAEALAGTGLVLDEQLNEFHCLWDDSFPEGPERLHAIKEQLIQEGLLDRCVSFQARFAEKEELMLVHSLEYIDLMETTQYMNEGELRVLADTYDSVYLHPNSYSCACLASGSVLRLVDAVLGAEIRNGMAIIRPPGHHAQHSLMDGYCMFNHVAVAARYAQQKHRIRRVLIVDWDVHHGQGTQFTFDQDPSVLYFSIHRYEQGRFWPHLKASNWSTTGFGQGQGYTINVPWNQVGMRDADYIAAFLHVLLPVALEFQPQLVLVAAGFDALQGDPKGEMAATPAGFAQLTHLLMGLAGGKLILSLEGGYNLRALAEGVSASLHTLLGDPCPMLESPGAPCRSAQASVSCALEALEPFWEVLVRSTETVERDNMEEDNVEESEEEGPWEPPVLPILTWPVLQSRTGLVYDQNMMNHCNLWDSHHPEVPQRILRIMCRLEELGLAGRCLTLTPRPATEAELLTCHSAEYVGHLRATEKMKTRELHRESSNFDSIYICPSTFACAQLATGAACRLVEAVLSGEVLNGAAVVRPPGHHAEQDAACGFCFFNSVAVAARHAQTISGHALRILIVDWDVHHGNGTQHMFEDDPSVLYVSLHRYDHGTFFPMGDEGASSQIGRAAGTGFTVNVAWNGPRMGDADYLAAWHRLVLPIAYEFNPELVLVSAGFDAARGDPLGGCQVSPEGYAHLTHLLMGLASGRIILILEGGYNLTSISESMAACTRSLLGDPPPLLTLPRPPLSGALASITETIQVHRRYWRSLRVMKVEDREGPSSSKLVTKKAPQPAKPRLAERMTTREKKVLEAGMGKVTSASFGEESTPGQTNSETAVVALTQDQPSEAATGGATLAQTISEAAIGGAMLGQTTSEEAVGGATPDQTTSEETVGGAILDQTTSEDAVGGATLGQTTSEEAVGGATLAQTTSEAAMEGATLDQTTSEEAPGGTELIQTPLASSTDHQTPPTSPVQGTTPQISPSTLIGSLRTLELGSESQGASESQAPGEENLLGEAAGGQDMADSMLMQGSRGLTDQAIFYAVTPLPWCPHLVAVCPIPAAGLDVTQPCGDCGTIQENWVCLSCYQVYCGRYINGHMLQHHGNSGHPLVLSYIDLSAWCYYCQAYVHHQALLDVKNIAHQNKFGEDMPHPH
UniProt P19838: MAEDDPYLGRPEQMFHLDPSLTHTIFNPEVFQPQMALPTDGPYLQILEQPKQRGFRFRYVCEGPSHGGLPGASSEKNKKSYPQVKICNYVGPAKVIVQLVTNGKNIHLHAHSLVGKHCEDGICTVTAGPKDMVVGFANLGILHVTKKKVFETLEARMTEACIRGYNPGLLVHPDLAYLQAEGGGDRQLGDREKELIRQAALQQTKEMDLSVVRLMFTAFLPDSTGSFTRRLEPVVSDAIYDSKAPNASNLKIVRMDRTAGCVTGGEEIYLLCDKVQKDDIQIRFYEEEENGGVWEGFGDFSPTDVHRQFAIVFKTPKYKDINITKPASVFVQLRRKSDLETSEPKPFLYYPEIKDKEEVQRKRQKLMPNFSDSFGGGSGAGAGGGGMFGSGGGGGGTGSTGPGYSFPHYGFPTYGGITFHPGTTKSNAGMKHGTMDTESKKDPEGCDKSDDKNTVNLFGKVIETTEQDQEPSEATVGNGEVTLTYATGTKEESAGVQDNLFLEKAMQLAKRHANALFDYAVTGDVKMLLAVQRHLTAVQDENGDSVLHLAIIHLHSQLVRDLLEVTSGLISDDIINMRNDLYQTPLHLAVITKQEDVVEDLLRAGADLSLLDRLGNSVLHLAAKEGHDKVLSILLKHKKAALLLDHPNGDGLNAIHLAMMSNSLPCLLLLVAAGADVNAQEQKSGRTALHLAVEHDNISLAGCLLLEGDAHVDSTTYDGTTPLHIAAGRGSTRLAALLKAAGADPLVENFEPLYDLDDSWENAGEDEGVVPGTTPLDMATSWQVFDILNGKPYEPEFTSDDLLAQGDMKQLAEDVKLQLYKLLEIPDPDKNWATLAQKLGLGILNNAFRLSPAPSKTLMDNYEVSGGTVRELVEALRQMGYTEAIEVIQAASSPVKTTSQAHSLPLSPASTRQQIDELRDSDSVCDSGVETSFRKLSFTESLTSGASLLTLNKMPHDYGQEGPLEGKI

Molecule: FLAG-tagged NF-κB1 p50 (from UniProt P19838 1-433)
binding: binds

B1: FLAG-tagged NF-κB2 p52 (protein, UniProt Q00653 1-454)
chain: MESCYNPGLDGIIEYDDFKLNSSIVEPKEPAPETADGPYLVIVEQPKQRGFRFRYGCEGPSHGGLPGASSEKGRKTYPTVKICNYEGPAKIEVDLVTHSDPPRAHAHSLVGKQCSELGICAVSVGPKDMTAQFNNLGVLHVTKKNMMGTMIQKLQRQRLRSRPQGLTEAEQRELEQEAKELKKVMDLSIVRLRFSAFLRASDGSFSLPLKPVISQPIHDSKSPGASNLKISRMDKTAGSVRGGDEVYLLCDKVQKDDIEVRFYEDDENGWQAFGDFSPTDVHKQYAIVFRTPPYHKMKIERPVTVFLQLKRKRGGDVSDSKQFTYYPLVEDKEEVQRKRRKALPTFSQPFGGGSHMGGGSGGAAGGYGGAGGGGSLGFFPSSLAYSPYQSGAGPMGCYPGGGGGAQMAATVPSRDSGEEAAEPSAPSRTPQCEPQAPEMLQRAREYNARLFGLA
binding: binds

Now from value to molecule:

binding: binds
Molecule: FLAG-tagged NF-κB1 p105 (from UniProt P19838 1-968)

binding: binds
B2: FLAG-tagged NF-κB2 p100 (protein, UniProt Q00653-1 1-900)
chain: MESCYNPGLDGIIEYDDFKLNSSIVEPKEPAPETADGPYLVIVEQPKQRGFRFRYGCEGPSHGGLPGASSEKGRKTYPTVKICNYEGPAKIEVDLVTHSDPPRAHAHSLVGKQCSELGICAVSVGPKDMTAQFNNLGVLHVTKKNMMGTMIQKLQRQRLRSRPQGLTEAEQRELEQEAKELKKVMDLSIVRLRFSAFLRASDGSFSLPLKPVISQPIHDSKSPGASNLKISRMDKTAGSVRGGDEVYLLCDKVQKDDIEVRFYEDDENGWQAFGDFSPTDVHKQYAIVFRTPPYHKMKIERPVTVFLQLKRKRGGDVSDSKQFTYYPLVEDKEEVQRKRRKALPTFSQPFGGGSHMGGGSGGAAGGYGGAGGGGSLGFFPSSLAYSPYQSGAGPMGCYPGGGGGAQMAATVPSRDSGEEAAEPSAPSRTPQCEPQAPEMLQRAREYNARLFGLAQRSARALLDYGVTADARALLAGQRHLLTAQDENGDTPLHLAIIHGQTSVIEQIVYVIHHAQDLGVVNLTNHLHQTPLHLAVITGQTSVVSFLLRVGADPALLDRHGDSAMHLALRAGAGAPELLRALLQSGAPAVPQLLHMPDFEGLYPVHLAVRARSPECLDLLVDSGAEVEATERQGGRTALHLATEMEELGLVTHLVTKLRANVNARTFAGNTPLHLAAGLGYPTLTRLLLKAGADIHAENEEPLCPLPSPPTSDSDSDSEGPEKDTRSSFRGHTPLDLTCSTKVKTLLLNAAQNTMEPPLTPPSPAGPGLSLGDTALQNLEQLLDGPEAQGSWAELAERLGLRSLVDTYRQTTSPSGSLLRSYELAGGDLAGLLEALSDMGLEEGVRLLRGPETRDKLPSTAEVKEDSAYGSQSVEQEAEKLGPPPEPPGGLCHGHPQPQVH
